Data reported in article doi:10.1101/2024.01.16.575949.
These are yes or no findings as the source states them, for the method shown. Binding seen in cells or lysates may run through a third protein. Here binding means that the protein was enriched with, or labelled near, the bait; the list need not be complete.

The chains behind the UniProt entries cited, without tags or fusion partners.
UniProt Q07955: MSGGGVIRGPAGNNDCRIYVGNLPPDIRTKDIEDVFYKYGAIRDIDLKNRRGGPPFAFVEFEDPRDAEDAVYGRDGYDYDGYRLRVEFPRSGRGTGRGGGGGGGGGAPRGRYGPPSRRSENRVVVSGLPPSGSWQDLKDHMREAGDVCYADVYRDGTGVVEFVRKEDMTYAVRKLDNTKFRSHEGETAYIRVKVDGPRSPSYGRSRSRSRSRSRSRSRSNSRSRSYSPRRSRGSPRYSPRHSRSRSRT
UniProt P61244: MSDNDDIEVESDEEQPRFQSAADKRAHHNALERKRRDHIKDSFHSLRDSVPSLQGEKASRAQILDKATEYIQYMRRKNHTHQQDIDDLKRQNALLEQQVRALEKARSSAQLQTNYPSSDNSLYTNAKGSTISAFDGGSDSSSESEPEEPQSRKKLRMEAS

T1: Halo-FAM60A (full length) (UniProt Q9NP50)
T1 sequence: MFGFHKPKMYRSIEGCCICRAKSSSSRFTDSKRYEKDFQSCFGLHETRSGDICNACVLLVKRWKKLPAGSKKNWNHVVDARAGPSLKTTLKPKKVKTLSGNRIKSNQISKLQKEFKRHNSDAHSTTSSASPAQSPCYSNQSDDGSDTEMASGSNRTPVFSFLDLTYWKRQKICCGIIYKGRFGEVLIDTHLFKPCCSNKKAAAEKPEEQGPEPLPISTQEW

T2: Halo-SIN3A (UniProt Q96ST3)
T2 sequence: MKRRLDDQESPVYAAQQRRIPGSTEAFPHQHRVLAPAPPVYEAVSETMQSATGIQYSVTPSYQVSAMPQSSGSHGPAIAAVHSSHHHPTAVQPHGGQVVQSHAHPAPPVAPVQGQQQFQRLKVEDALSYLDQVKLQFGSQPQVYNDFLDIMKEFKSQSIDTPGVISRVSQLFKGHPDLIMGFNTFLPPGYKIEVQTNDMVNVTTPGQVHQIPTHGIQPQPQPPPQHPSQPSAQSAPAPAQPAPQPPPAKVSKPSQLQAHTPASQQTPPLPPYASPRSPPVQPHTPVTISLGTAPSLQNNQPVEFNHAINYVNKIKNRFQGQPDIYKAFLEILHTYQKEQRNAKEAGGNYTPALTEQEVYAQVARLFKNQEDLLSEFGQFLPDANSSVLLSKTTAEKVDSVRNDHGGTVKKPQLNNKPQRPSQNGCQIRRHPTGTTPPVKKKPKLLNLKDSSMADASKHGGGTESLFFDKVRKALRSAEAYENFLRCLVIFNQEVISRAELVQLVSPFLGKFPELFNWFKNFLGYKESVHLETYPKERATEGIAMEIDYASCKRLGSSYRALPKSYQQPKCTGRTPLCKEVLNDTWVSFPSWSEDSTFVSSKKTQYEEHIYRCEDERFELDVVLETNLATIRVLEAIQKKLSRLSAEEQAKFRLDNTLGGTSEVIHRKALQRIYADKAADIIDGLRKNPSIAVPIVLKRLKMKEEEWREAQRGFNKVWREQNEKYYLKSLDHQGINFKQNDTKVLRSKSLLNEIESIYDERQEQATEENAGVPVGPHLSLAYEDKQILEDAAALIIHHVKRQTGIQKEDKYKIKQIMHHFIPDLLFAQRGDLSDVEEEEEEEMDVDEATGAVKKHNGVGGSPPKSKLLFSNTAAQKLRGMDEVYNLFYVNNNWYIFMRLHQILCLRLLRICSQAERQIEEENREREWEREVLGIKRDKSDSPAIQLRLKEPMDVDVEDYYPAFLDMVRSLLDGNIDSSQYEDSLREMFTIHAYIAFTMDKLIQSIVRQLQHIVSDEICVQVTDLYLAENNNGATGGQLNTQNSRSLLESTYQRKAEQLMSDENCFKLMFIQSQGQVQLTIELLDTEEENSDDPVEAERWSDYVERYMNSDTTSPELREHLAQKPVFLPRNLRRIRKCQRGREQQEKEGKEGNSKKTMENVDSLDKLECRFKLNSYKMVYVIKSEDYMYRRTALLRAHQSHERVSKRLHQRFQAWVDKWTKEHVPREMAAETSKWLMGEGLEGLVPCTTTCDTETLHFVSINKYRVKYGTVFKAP

B1: U2AF1 (endogenous) (protein, UniProt Q01081 1-240)
chain: MAEYLASIFGTEKDKVNCSFYFKIGACRHGDRCSRLHNKPTFSQTIALLNIYRNPQNSSQSADGLRCAVSDVEMQEHYDEFFEEVFTEMEEKYGEVEEMNVCDNLGDHLVGNVYVKFRREEDAEKAVIDLNNRWFNGQPIHAELSPVTDFREACCRQYEMGECTRGGFCNFMHLKPISRELRRELYGRRRKKHRSRSRSRERRSRSRDRGRGGGGGGGGGGGGRERDRRRSRDRERSGRF
B2: SRSF2 (endogenous) (protein, UniProt Q01130 1-221)
chain: MSYGRPPPDVEGMTSLKVDNLTYRTSPDTLRRVFEKYGRVGDVYIPRDRYTKESRGFAFVRFHDKRDAEDAMDAMDGAVLDGRELRVQMARYGRPPDSHHSRRGPPPRRYGGGGYGRRSRSPRRRRRSRSRSRSRSRSRSRSRYSRSKSRSRTRSRSRSTSKSRSARRSKSKSSSVSRSRSRSRSRSRSRSPPPVSKRESKSRSRSKSPPKSPEEEGAVSS
B3: SRSF3 (endogenous) (protein, UniProt P84103 1-164)
chain: MHRDSCPLDCKVYVGNLGNNGNKTELERAFGYYGPLRSVWVARNPPGFAFVEFEDPRDAADAVRELDGRTLCGCRVRVELSNGEKRSRNRGPPPSWGRRPRDDYRRRSPPPRRRSPRRRSFSRSRSRSLSRDRRRERSLSRERNHKPSRSFSRSRSRSRSNERK
B4: ARID4A (endogenous) (protein, UniProt P29374 1-1257)
chain: MKAADEPAYLTVGTDVSAKYRGAFCEAKIKTVKRLVKVKVLLKQDNTTQLVQDDQVKGPLRVGAIVETRTSDGSFQEAIISKLTDASWYTVVFDDGDERTLRRTSLCLKGERHFAESETLDQLPLTNPEHFGTPVIAKKTNRGRRSSLPVTEDEKEEESSEEEDEDKRRLNDELLGKVVSVVSATERTEWYPALVISPSCNDDITVKKDQCLVRSFIDSKFYSIARKDIKEVDILNLPESELSTKPGLQKASIFLKTRVVPDNWKMDISEILESSSSDDEDGPAEENDEEKEKEAKKTEEEVPEEELDPEERDNFLQQLYKFMEDRGTPINKPPVLGYKDLNLFKLFRLVYHQGGCDNIDSGAVWKQIYMDLGIPILNSAASYNVKTAYRKYLYGFEEYCRSANIQFRTVHHHEPKVKEEKKDLEESMEEALKLDQEMPLTEVKSEPEENIDSNSESEREEIELKSPRGRRRIARDVNSIKKEIEEEKTEDKLKDNDTENKDVDDDYETAEKKENELLLGRKNTPKQKEKKIKKQEDSDKDSDEEEEKSQEREETESKCDSEGEEDEEDMEPCLTGTKVKVKYGRGKTQKIYEASIKSTEIDDGEVLYLVHYYGWNVRYDEWVKADRIIWPLDKGGPKKKQKKKAKNKEDSEKDEKRDEERQKSKRGRPPLKSTLSSNMPYGLSKTANSEGKSDSCSSDSETEDALEKNLINEELSLKDELEKNENLNDDKLDEENPKISAHILKENDRTQMQPLETLKLEVGENEQIVQIFGNKMEKTEEVKKEAEKSPKGKGRRSKTKDLSLEIIKISSFGQNEAGSEPHIEAHSLELSSLDNKNFSSATEDEIDQCVKEKKLKRKILGQSSPEKKIRIENGMEMTNTVSQERTSDCIGSEGMKNLNFEQHFERENEGMPSLIAESNQCIQQLTSERFDSPAEETVNIPLKEDEDAMPLIGPETLVCHEVDLDDLDEKDKTSIEDVAVESSESNSLVSIPPALPPVVQHNFSVASPLTLSQDESRSVKSESDITIEVDSIAEESQEGLCERESANGFETNVASGTCSIIVQERESREKGQKRPSDGNSGLMAKKQKRTPKRTSAAAKNEKNGTGQSSDSEDLPVLDNSSKCTPVKHLNVSKPQKLARSPARISPHIKDGEKDKHREKHPNSSPRTYKWSFQLNELDNMNSTERISFLQEKLQEIRKYYMSLKSEVATIDRRRKRLKKKDREVSHAGASMSSASSDTGMSPSSSSPPQNVLAVECR
B5: ARID4B (endogenous) (protein, UniProt Q4LE39 1-1312)
chain: MKALDEPPYLTVGTDVSAKYRGAFCEAKIKTAKRLVKVKVTFRHDSSTVEVQDDHIKGPLKVGAIVEVKNLDGAYQEAVINKLTDASWYTVVFDDGDEKTLRRSSLCLKGERHFAESETLDQLPLTNPEHFGTPVIGKKTNRGRRSNHIPEEESSSSSSDEDEDDRKQIDELLGKVVCVDYISLDKKKALWFPALVVCPDCSDEIAVKKDNILVRSFKDGKFTSVPRKDVHEITSDTAPKPDAVLKQAFEQALEFHKSRTIPANWKTELKEDSSSSEAEEEEEEEDDEKEKEDNSSEEEEEIEPFPEERENFLQQLYKFMEDRGTPINKRPVLGYRNLNLFKLFRLVHKLGGFDNIESGAVWKQVYQDLGIPVLNSAAGYNVKCAYKKYLYGFEEYCRSANIEFQMALPEKVVNKQCKECENVKEIKVKEENETEIKEIKMEEERNIIPREEKPIEDEIERKENIKPSLGSKKNLLESIPTHSDQEKEVNIKKPEDNENLDDKDDDTTRVDESLNIKVEAEEEKAKSGDETNKEEDEDDEEAEEEEEEEEEEEDEDDDDNNEEEEFECYPPGMKVQVRYGRGKNQKMYEASIKDSDVEGGEVLYLVHYCGWNVRYDEWIKADKIVRPADKNVPKIKHRKKIKNKLDKEKDKDEKYSPKNCKLRRLSKPPFQTNPSPEMVSKLDLTDAKNSDTAHIKSIEITSILNGLQASESSAEDSEQEDERGAQDMDNNGKEESKIDHLTNNRNDLISKEEQNSSSLLEENKVHADLVISKPVSKSPERLRKDIEVLSEDTDYEEDEVTKKRKDVKKDTTDKSSKPQIKRGKRRYCNTEECLKTGSPGKKEEKAKNKESLCMENSSNSSSDEDEEETKAKMTPTKKYNGLEEKRKSLRTTGFYSGFSEVAEKRIKLLNNSDERLQNSRAKDRKDVWSSIQGQWPKKTLKELFSDSDTEAAASPPHPAPEEGVAEESLQTVAEEESCSPSVELEKPPPVNVDSKPIEEKTVEVNDRKAEFPSSGSNSVLNTPPTTPESPSSVTVTEGSRQQSSVTVSEPLAPNQEEVRSIKSETDSTIEVDSVAGELQDLQSEGNSSPAGFDASVSSSSSNQPEPEHPEKACTGQKRVKDAQGGGSSSKKQKRSHKATVVNNKKKGKGTNSSDSEELSAGESITKSQPVKSVSTGMKSHSTKSPARTQSPGKCGKNGDKDPDLKEPSNRLPKVYKWSFQMSDLENMTSAERITILQEKLQEIRKHYLSLKSEVASIDRRRKRLKKKERESAATSSSSSSPSSSSITAAVMLTLAEPSMSSASQNGMSVECR
B6: SAP30 (endogenous) (protein, UniProt O75446 1-220)
chain: MNGFTPDEMSRGGDAAAAVAAVVAAAAAAASAGNGTGAGTGAEVPGAGAVSAAGPPGAAGPGPGQLCCLREDGERCGRAAGNASFSKRIQKSISQKKVKIELDKSARHLYICDYHKNLIQSVRNRRKRKGSDDDGGDSPVQDIDTPEVDLYQLQVNTLRRYKRHFKLPTRPGLNKAQLVEIVGCHFRSIPVNEKDTLTYFIYSVKNDKNKSDLKVDSGVH
B7: SAP30L (endogenous) (protein, UniProt Q9HAJ7 1-183)
chain: MNGFSTEEDSREGPPAAPAAAAPGYGQSCCLIEDGERCVRPAGNASFSKRVQKSISQKKLKLDIDKSVRHLYICDFHKNFIQSVRNKRKRKTSDDGGDSPEHDTDIPEVDLFQLQVNTLRRYKRHYKLQTRPGFNKAQLAETVSRHFRNIPVNEKETLAYFIYMVKSNKSRLDQKSEGGKQLE
B8: ING2 (endogenous) (protein, UniProt Q9H160 1-280)
chain: MLGQQQQQLYSSAALLTGERSRLLTCYVQDYLECVESLPHDMQRNVSVLRELDNKYQETLKEIDDVYEKYKKEDDLNQKKRLQQLLQRALINSQELGDEKIQIVTQMLELVENRARQMELHSQCFQDPAESERASDKAKMDSSQPERSSRRPRRQRTSESRDLCHMANGIEDCDDQPPKEKKSKSAKKKKRSKAKQEREASPVEFAIDPNEPTYCLCNQVSYGEMIGCDNEQCPIEWFHFSCVSLTYKPKGKWYCPKCRGDNEKTMDKSTEKTKKDRRSR

What follows are molecules tested against T1, Halo-FAM60A (full length) (assay: affinity purification with mass spectrometry).

binding, binds:
SRSF1 (endogenous) (from UniProt Q07955 1-248)
B1
B2
B3

The molecules below were run against T2, Halo-SIN3A (assay: affinity purification with mass spectrometry).

binding, binds:
MAX (endogenous) (from UniProt P61244 1-160)
B4
B5
B6
B7
B8
